Patent publication US11617762B2, “Compositions comprising sulfated polysaccharides” (SEANERGY DERMATOLOGY LTD., priority 2016, dated 2023)
For at least one compound, name, drawing or mass did not settle the structure.

What was measured:
[1] = tested on: TNFα secretion in RAW 264.7 cells; assay: LPS-induced TNFα secretion by RAW 264.7 macrophage cells (ELISA); type: cell-based; conditions: Example 1; at high concentrations, used alone
[2] = tested on: IL-6 secretion, Raw 264.7 macrophage cells; assay: LPS-induced IL-6 secretion by RAW 264.7 macrophage cells (ELISA); type: cell-based; conditions: Example 2, FIG. 2; SPS 1:4000 alone; dexamethasone 0.1 μM alone

Which results are given for `C[C@@H]1C[C@H]2[C@@H]3CCC4=CC(=O)C=C[C@]4(C)[C@@]3(F)[C@@H](O)C[C@]2(C)[C@@]1(O)C(=O)CO` [Dexamethasone]?
effect on LPS-induced hypersecretion of TNFα (in words) [1]: able to inhibit the hypersecretion of TNFα; effect on LPS-induced IL-6 secretion (in words) [2]: Neither SPS alone nor dexamethasone alone caused a significant decrease
